Test results published in the supplement of paper PMC6411743.
± gives the standard deviation of the averaged measurements. The list shows a part of the results, in another mix than the full data.

The chains behind the UniProt entries cited, without tags or fusion partners. Where a name states a change or a piece, a line headed by the entry shows the natural chain unless it says otherwise.
UniProt Q7Z5R6: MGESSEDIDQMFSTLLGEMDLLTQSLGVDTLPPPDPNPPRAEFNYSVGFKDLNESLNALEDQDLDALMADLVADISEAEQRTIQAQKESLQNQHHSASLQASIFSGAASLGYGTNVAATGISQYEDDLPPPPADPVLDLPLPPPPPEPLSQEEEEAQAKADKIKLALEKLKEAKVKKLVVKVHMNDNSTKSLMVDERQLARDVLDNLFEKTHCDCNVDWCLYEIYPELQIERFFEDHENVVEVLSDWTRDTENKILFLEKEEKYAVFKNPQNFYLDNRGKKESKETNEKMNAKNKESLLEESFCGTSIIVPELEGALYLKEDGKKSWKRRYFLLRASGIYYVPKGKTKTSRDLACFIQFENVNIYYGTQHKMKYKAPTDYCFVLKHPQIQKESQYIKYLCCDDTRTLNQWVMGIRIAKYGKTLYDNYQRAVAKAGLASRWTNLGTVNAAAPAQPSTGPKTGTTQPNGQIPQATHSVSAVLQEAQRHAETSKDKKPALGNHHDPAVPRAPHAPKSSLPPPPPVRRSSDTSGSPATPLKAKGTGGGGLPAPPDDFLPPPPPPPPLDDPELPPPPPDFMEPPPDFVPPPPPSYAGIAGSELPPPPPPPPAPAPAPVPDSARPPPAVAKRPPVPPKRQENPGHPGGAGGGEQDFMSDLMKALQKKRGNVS
UniProt Q7L273: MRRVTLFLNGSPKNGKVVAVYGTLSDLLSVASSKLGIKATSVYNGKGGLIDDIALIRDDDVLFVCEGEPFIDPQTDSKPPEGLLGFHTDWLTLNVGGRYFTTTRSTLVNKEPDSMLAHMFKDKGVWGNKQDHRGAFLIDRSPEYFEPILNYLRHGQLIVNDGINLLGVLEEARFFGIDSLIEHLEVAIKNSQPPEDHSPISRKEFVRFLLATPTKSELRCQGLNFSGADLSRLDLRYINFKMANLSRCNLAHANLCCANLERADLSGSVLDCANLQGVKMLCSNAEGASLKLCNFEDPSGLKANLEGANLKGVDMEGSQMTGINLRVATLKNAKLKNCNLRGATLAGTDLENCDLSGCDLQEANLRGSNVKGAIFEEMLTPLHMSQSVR
UniProt Q6JBY9, whole entry: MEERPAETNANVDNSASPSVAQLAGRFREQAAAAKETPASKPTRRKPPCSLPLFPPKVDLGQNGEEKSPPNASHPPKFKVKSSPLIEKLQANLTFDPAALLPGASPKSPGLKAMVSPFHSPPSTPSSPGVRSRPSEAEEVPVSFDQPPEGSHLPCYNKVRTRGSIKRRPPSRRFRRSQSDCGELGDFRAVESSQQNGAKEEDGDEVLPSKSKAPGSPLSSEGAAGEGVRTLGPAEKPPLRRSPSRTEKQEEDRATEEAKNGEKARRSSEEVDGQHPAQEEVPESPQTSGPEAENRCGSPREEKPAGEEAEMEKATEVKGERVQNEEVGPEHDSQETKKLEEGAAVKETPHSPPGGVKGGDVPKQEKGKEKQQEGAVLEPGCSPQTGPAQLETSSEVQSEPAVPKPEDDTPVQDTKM
UniProt Q7Z4G1, whole entry: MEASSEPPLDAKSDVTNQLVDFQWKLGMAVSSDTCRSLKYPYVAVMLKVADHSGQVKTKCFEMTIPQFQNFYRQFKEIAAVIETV
UniProt Q7RTS9: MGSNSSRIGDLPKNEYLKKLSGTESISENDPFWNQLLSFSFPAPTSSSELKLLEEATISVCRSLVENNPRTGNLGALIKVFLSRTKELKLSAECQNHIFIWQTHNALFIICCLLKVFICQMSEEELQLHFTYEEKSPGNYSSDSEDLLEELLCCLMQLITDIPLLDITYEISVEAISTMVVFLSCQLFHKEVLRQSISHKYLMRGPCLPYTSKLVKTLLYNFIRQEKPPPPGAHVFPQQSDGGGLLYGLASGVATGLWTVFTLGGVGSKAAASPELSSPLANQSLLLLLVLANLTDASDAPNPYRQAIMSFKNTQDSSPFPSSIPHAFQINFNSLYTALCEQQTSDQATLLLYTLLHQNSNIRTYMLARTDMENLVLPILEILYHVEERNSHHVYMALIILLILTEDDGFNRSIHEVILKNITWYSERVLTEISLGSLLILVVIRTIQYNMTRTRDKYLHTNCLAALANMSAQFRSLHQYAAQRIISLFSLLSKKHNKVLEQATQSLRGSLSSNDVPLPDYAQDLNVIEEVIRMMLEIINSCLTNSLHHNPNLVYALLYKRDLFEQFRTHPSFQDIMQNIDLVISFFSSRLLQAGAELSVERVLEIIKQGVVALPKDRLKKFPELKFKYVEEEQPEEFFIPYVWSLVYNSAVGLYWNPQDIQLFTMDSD
UniProt Q6GPH4: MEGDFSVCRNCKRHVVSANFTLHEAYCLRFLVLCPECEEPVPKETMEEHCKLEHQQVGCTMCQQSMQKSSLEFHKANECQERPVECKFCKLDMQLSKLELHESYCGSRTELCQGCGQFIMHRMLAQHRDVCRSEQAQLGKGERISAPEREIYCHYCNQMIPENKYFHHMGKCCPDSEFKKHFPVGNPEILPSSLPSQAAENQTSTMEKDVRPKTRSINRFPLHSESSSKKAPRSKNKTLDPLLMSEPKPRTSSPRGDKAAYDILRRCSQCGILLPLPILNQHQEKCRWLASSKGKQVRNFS
UniProt Q6XQN6: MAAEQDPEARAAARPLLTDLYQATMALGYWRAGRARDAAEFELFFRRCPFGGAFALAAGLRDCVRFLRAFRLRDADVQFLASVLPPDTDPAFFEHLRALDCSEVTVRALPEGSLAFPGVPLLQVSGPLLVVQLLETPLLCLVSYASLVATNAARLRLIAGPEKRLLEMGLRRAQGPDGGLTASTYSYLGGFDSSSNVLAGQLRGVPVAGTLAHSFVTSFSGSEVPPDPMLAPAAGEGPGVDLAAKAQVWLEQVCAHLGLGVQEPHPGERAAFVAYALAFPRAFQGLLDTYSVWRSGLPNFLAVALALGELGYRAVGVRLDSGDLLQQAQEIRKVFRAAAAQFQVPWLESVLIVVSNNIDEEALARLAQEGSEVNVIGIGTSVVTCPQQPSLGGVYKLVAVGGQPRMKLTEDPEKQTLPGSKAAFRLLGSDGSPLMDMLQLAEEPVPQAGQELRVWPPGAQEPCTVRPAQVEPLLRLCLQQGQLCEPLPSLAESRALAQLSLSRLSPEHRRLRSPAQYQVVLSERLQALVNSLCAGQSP
UniProt Q6PII3: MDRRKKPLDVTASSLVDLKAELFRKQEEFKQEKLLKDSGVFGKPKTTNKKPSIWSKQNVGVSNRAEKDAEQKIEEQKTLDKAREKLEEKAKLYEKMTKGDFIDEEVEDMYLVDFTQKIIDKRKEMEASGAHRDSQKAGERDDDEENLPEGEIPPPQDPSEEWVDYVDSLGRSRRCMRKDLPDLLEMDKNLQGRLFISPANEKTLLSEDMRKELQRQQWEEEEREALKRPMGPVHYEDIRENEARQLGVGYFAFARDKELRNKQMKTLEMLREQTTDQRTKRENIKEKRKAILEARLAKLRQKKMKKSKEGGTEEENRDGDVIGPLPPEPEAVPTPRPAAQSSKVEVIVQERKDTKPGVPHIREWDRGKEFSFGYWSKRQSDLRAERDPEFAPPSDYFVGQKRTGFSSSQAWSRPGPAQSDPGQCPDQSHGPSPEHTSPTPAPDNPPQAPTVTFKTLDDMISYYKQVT
UniProt Q68DK2: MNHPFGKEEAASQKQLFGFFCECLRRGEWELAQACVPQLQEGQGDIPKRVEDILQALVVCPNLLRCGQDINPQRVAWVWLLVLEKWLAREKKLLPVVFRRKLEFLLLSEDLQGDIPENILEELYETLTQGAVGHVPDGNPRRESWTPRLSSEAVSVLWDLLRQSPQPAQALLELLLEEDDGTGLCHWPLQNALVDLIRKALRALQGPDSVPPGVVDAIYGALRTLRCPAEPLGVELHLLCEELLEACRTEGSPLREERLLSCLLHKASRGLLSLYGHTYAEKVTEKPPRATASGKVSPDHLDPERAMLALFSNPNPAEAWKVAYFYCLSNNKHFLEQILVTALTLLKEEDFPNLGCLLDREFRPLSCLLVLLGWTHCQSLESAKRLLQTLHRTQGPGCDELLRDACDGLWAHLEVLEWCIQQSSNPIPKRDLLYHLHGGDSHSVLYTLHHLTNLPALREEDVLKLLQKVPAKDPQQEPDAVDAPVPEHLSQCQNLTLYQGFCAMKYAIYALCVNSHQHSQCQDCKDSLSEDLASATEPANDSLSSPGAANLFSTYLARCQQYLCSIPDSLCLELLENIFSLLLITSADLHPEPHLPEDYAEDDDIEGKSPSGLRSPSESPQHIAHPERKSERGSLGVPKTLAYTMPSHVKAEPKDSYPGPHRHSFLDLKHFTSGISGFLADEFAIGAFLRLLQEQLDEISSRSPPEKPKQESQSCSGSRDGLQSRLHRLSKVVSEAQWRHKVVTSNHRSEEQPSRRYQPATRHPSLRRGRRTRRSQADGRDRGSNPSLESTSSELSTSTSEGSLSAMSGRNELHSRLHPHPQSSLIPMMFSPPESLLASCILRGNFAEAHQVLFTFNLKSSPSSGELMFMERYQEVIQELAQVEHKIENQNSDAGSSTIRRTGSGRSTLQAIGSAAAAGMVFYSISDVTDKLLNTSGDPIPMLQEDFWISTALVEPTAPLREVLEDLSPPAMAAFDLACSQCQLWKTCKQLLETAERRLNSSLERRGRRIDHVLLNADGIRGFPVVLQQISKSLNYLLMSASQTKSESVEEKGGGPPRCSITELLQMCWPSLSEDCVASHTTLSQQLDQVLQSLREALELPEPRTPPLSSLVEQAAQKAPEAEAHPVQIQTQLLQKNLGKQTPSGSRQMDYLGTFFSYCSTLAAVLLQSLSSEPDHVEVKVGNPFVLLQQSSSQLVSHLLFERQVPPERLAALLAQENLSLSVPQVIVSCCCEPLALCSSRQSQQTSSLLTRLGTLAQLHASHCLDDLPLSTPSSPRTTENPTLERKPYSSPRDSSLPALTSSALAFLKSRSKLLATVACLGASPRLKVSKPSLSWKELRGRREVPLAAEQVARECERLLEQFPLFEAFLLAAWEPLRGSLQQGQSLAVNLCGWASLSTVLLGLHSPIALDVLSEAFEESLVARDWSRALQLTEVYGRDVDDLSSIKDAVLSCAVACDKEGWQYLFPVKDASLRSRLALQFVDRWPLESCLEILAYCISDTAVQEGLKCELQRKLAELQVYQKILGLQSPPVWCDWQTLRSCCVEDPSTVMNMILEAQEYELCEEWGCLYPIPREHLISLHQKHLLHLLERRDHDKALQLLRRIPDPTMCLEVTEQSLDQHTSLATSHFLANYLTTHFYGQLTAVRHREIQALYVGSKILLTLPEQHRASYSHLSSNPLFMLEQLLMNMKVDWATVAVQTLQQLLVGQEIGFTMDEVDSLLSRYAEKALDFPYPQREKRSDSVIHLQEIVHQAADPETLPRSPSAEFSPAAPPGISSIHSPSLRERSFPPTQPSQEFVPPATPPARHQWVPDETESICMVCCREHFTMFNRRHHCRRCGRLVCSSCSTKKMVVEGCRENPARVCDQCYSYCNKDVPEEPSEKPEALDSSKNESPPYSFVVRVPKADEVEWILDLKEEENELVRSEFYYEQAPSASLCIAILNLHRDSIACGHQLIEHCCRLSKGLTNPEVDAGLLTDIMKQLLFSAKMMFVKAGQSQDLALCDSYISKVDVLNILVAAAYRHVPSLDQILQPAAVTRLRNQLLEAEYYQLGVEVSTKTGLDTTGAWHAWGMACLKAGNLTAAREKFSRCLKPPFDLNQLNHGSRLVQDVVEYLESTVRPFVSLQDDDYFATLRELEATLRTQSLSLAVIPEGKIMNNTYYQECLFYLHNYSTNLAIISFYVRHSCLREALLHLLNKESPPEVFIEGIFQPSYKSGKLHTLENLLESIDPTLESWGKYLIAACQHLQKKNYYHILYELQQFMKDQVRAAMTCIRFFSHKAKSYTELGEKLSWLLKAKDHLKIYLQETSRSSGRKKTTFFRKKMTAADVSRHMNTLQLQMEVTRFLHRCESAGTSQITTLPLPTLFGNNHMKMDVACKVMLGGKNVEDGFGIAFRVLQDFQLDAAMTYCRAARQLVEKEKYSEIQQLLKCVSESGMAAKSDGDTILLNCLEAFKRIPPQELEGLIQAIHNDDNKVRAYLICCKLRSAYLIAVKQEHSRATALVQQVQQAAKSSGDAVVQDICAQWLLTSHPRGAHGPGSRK
UniProt Q6PID6, whole entry: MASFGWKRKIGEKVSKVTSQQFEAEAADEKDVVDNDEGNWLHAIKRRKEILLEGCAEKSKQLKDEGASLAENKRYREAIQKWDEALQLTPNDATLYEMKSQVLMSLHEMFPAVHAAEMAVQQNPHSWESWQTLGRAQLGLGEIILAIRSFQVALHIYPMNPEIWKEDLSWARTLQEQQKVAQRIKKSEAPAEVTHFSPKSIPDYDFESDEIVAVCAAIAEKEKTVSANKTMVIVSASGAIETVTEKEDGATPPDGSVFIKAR
UniProt Q6NS38: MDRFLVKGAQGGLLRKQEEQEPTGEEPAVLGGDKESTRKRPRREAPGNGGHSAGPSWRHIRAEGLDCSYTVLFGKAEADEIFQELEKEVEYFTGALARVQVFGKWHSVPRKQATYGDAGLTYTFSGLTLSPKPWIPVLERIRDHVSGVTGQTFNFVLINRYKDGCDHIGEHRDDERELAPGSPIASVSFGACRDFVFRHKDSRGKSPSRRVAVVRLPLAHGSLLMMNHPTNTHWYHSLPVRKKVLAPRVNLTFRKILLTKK

Compound: Nc1ncnc2c1ncn2[C@@H]1O[C@H](COP(=O)(O)OP(=O)(O)NP(=O)(O)O)[C@@H](O)[C@H]1O [adenylyl imidodiphosphate]
Assay: NP40-soluble protein abundance relative to vehicle (solubility fold change) (ratio); higher = more soluble protein in presence of AMP-PNP
In short: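 Across three independent experiments, values are fold changes against the detergent-processed vehicle for each replicate, based on vsn-normalised intensities. The samples were Jurkat crude lysate treated with eight concentrations (0.1 to 10 mM) for 10 min at room temperature and then 3 min at 37 °C. Lysate was solubilised with 0.8% NP40 and benzonase, ultracentrifuged, and the supernatant analysed by TMT-labelled LC-MS/MS.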

Target	NP40-soluble protein abundance (concentration: 1mM)	NP40-soluble protein abundance (concentration: 2mM)	NP40-soluble protein abundance (concentration: 4mM)	NP40-soluble protein abundance (concentration: 6mM)	NP40-soluble protein abundance (concentration: 8mM)	NP40-soluble protein abundance (concentration: 10mM)
UniProt Q6P4E1-2|Q6P4E1-4|Q6P4E1-5|Q6P4E1	0.968 ± 0.029	1.03 ± 0.078	0.976 ± 0.017	0.944 ± 0.036	0.925 ± 0.049	0.917 ± 0.031
ERICH5 (UniProt Q6P6B1)	0.999 ± 0.02	1.08 ± 0.1	1 ± 0.02	0.987 ± 0.032	0.963 ± 0.056	0.989 ± 0.044
MON1B (UniProt Q7L1V2)	1.01 ± 0.013	0.934 ± 0.064	0.996 ± 0.04	1.03 ± 0.05	1.03 ± 0.025	1.024 ± 0.0073
APBB1IP (UniProt Q7Z5R6)	0.985 ± 0.035	1.012 ± 0.0027	1.01 ± 0.03	0.988 ± 0.024	0.994 ± 0.034	0.972 ± 0.021
KCTD9 (UniProt Q7L273)	0.987 ± 0.031	0.958 ± 0.039	0.958 ± 0.025	0.997 ± 0.035	0.968 ± 0.047	0.948 ± 0.042
UniProt Q70UQ0 and related entries	1.01 ± 0.025	1.03 ± 0.036	0.991 ± 0.056	0.994 ± 0.06	0.982 ± 0.017	0.936 ± 0.031
RCSD1 (UniProt Q6JBY9)	1.01 ± 0.04	1.06 ± 0.066	0.974 ± 0.048	0.943 ± 0.059	0.907 ± 0.017	0.897 ± 0.032
UniProt Q6P6C2 and related entries	1.15 ± 0.065	1.17 ± 0.036	1.22 ± 0.07	1.24 ± 0.13	1.3 ± 0.13	1.33 ± 0.11
SNX30 (UniProt Q5VWJ9)	1.002 ± 0.0069	0.9917 ± 6.2e-05	0.994 ± 0.03	1.01 ± 0.017	0.987 ± 0.025	1.013 ± 0.0092
UniProt Q7Z4G1 and related entries	0.994 ± 0.024	1.04 ± 0.056	1.01 ± 0.039	1.03 ± 0.018	1 ± 0.034	1.01 ± 0.035
BLOC1S3 (UniProt Q6QNY0)	0.992 ± 0.007	1.03 ± 0.033	1.03 ± 0.03	1.03 ± 0.039	1.037 ± 0.0084	1.03 ± 0.02
DYM (UniProt Q7RTS9)	1 ± 0.013	0.972 ± 0.02	0.994 ± 0.0098	0.9857 ± 0.0095	0.997 ± 0.018	0.9736 ± 0.0051
UniProt Q7Z5J4 and related entries	1.06 ± 0.027	1.14 ± 0.064	1.14 ± 0.021	1.16 ± 0.091	1.2 ± 0.086	1.28 ± 0.097
MED13L (UniProt Q71F56)	1.02 ± 0.033	1.03 ± 0.015	1.01 ± 0.03	1.01 ± 0.072	1.01 ± 0.038	1.04 ± 0.081
UniProt Q6GPH4 and related entries	1.01 ± 0.04	1.06 ± 0.039	1.01 ± 0.029	1 ± 0.028	1 ± 0.039	0.989 ± 0.011
ELMSAN1 (UniProt Q6PJG2)	1.03 ± 0.026	1.06 ± 0.059	1.06 ± 0.043	1.02 ± 0.019	1.023 ± 0.0066	1.04 ± 0.036
METTL2B (UniProt Q6P1Q9)	1.02 ± 0.017	1.01 ± 0.026	1.01 ± 0.053	0.979 ± 0.015	0.981 ± 0.005	1 ± 0.033

Target	NP40-soluble protein abundance (concentration: 1mM)	NP40-soluble protein abundance (concentration: 2mM)	NP40-soluble protein abundance (concentration: 4mM)	NP40-soluble protein abundance (concentration: 6mM)	NP40-soluble protein abundance (concentration: 8mM)	NP40-soluble protein abundance (concentration: 10mM)
UniProt Q6XQN6 and related entries	0.994 ± 0.02	1.01 ± 0.012	1.01 ± 0.018	0.966 ± 0.033	0.954 ± 0.045	0.969 ± 0.021
UniProt Q6PII3 and related entries	0.986 ± 0.024	1.04 ± 0.042	1.02 ± 0.016	1.01 ± 0.02	0.991 ± 0.032	1.04 ± 0.042
NADSYN1 (UniProt Q6IA69)	0.994 ± 0.023	0.958 ± 0.039	0.979 ± 0.012	0.968 ± 0.035	0.99 ± 0.04	0.984 ± 0.038
MRM1 (UniProt Q6IN84)	0.995 ± 0.028	1.01 ± 0.014	1.03 ± 0.016	1.06 ± 0.02	1.09 ± 0.035	1.14 ± 0.015
UniProt Q7Z333 and related entries	0.982 ± 0.026	0.944 ± 0.018	1 ± 0.076	0.9718 ± 0.0015	0.958 ± 0.014	0.948 ± 0.017
UniProt Q7Z392	0.985 ± 0.027	0.949 ± 0.077	0.996 ± 0.023	0.932 ± 0.012	0.96 ± 0.035	0.925 ± 0.038
UniProt Q7Z5K2-2|Q7Z5K2-3|Q7Z5K2	1.04 ± 0.017	1.021 ± 0.003	1.01 ± 0.022	0.993 ± 0.038	0.972 ± 0.038	0.998 ± 0.039
UniProt Q68DK2 and related entries	0.985 ± 0.021	0.966 ± 0.028	0.962 ± 0.03	1.02 ± 0.06	1.02 ± 0.031	1.02 ± 0.051
UniProt Q5VSL9	0.982 ± 0.051	0.9935 ± 0.0092	0.978 ± 0.026	0.975 ± 0.015	0.95 ± 0.011	0.987 ± 0.031
UniProt Q6YP21 and related entries	0.997 ± 0.011	0.914 ± 0.091	0.9957 ± 0.0071	0.987 ± 0.071	1.04 ± 0.074	1.02 ± 0.063
UniProt Q6PII5-2|B4DED4	0.977 ± 0.019	0.982 ± 0.01	0.951 ± 0.018	1 ± 0.048	1.01 ± 0.043	0.989 ± 0.016
UniProt Q6P2H3 and related entries	1.01 ± 0.035	1.04 ± 0.061	0.9772 ± 0.0087	0.943 ± 0.026	0.901 ± 0.017	0.942 ± 0.031
UniProt Q66K74 and related entries	1.04 ± 0.024	1.06 ± 0.034	1.05 ± 0.027	1.03 ± 0.022	1.01 ± 0.045	1.02 ± 0.032
UniProt Q6NT76 and related entries	1.02 ± 0.035	1.03 ± 0.047	1.02 ± 0.028	0.973 ± 0.021	1.02 ± 0.044	0.987 ± 0.015
UniProt Q66K14-2|Q66K14	0.973 ± 0.029	1 ± 0.036	0.9859 ± 0.0023	0.933 ± 0.011	0.9428 ± 0.0082	0.9259 ± 0.0089
TTC33 (UniProt Q6PID6)	0.981 ± 0.011	1.02 ± 0.025	0.946 ± 0.037	0.949 ± 0.032	0.912 ± 0.018	0.9185 ± 0.004
UniProt Q6NS38 and related entries	1.01 ± 0.022	1.038 ± 0.0089	1.03 ± 0.013	1.05 ± 0.032	1.04 ± 0.021	1.03 ± 0.028

Copied from the list:
Under NP40-soluble protein abundance (concentration: 6mM), UniProt Q6NT76 and related entries is entered as 0.973 ± 0.021
Under NP40-soluble protein abundance (concentration: 8mM), UniProt Q6YP21 and related entries is entered as 1.04 ± 0.074
Under NP40-soluble protein abundance (concentration: 2mM), UniProt Q6PII3 and related entries is entered as 1.04 ± 0.042
